Reference: patent US20170101472A1
These are yes or no findings as the source states them, for the method shown. Some results given as binding are weak or reduced against the parent protein; the word gives no strength.

Amino acid sequences for entries named in this document (tags omitted).
UniProt Q9EP73: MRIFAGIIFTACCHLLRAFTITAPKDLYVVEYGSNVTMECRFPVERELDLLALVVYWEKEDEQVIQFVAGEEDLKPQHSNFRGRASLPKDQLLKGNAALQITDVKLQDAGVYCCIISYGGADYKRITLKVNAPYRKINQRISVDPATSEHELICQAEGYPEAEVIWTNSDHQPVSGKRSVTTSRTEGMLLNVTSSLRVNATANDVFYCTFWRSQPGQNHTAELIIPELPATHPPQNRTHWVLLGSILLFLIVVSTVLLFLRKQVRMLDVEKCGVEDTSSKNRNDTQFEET

Target: mouse PD-L1 (mouse) (UniProt Q9EP73)
Experiment: SPR Biacore

binding: binds
Substance: human PD-1 (from UniProt Q15116 25-170) (receptor)
